Data as given in paper PMC2361330.
Results are given in words; binding and its absence hold for the method and conditions named. Binding seen in cells or lysates may run through a third protein. Some entries that bind do so weakly or less than the wild type.

Chains of the proteins cited; added tags and fusions are not shown. Residues count along the entry.
UniProt P17948, residues 27-1338: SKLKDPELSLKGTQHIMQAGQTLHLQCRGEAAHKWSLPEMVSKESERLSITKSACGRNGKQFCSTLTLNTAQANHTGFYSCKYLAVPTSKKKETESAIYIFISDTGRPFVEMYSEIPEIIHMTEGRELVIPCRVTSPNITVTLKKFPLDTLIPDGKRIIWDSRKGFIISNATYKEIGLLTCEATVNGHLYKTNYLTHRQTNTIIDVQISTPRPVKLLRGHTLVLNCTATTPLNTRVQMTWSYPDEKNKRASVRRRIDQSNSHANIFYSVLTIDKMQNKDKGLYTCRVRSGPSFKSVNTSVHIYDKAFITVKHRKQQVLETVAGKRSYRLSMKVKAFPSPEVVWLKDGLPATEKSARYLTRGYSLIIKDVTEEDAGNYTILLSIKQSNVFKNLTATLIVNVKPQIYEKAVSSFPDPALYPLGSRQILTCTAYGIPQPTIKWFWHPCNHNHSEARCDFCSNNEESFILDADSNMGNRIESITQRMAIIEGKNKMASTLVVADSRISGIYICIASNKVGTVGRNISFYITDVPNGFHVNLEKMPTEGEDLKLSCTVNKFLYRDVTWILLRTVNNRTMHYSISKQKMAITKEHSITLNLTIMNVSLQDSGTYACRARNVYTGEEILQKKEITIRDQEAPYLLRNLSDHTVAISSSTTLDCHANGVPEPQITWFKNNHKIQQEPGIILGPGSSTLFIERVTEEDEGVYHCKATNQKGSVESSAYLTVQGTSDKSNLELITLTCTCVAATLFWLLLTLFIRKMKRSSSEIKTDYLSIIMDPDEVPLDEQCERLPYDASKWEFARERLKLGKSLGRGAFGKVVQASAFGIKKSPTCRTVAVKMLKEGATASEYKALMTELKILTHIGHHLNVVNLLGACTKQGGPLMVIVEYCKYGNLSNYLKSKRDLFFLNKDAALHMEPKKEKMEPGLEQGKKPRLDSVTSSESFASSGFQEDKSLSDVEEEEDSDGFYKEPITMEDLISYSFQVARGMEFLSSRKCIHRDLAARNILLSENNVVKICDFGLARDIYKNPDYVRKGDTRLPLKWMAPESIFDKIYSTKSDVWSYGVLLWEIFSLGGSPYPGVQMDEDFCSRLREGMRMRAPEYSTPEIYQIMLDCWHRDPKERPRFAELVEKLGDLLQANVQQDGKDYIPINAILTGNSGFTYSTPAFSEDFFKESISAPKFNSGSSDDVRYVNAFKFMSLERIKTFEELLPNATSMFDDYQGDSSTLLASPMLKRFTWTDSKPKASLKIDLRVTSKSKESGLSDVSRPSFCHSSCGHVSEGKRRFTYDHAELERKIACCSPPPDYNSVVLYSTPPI
UniProt P07947: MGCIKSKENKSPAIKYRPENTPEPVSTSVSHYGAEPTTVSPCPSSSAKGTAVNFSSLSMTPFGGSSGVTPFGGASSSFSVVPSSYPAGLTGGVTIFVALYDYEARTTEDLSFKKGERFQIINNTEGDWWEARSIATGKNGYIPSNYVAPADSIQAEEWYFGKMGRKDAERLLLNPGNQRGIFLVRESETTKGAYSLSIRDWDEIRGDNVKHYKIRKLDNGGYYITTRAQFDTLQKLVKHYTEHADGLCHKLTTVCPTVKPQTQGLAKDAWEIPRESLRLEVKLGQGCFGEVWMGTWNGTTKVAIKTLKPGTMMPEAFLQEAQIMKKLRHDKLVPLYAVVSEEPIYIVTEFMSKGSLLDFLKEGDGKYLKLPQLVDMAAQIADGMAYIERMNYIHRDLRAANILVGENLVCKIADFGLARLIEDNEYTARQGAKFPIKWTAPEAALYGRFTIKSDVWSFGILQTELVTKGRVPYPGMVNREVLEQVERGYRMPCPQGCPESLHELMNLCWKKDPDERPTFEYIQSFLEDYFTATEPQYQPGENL

What was measured:
[1] = target: Vascular endothelial growth factor receptor 1 (human (endogenous in HT29)) (UniProt P17948); test: co-IP; lysates of VEGF-A-treated HT29 cells (RIPA-B buffer) immunoprecipitated with anti-VEGFR-1 antibody; Western blot with antibodies to Src, Yes or VEGFR-1
[2] = target: Vascular endothelial growth factor receptor 1 (human (endogenous in HT29)) (UniProt P17948); test: condition: only cells pretreated with the VEGFR-1 blocking antibody IMC-18F1 (20 μg ml^−1); co-IP; as a1, but HT29 cells pretreated with the VEGFR-1 blocking antibody IMC-18F1 (20 μg ml^−1, 1 h) before VEGF-A; immunoprecipitated with anti-VEGFR-1, blotted for Src, Yes or VEGFR-1

Yes (from UniProt P07947 1-543) (enzyme)
binding [1]: binds | binding [2]: no binding
